Source: patent publication US12729225B2, “Non-canonical SWI/SNF complex and uses thereof” (Dana-Farber Cancer Institute, Inc., priority 2018, dated 2026)

B1: HNRNPA1L2 (protein)
chain: MSKSASPKEPEQLRKLFIGGLSFETTDESLRSHFEQWGTLTDCVVMRDPNTKRSRGFGFVTYATVEEVDAAMNTTPHKVDGRVVEPKRAVSREDSQRPGAHLTVKKIFVGGIKEDTEEHHLRDYFEQYGKIEVIEIMTDRGSGKKRGFAFVTFDDHDSVDKIVIQKYHTVKGHNCEVRKALPKQEMASASSSQRGRRGSGNFGGGRGDGFGGNDNFGRGGNFSGRGGFGGSCGGGGYGGSGDGYNGFGNDGSNFGGGGSYNDFGNYNNQSSNFGPMKGGNFGGRSSGPYGGGGQYFAKPQNQGGYGVSSSSSSYGSGRRF
B2: SLC3A2 (protein, UniProt P08195 1-630, looked up)
Amino acid transporter heavy …: MELQPPEASIAVVSIPRQLPGSHSEAGVQGLSAGDDSELGSHCVAQTGLELLASGDPLPSASQNAEMIETGSDCVTQAGLQLLASSDPPALASKNAEVTGTMSQDTEVDMKEVELNELEPEKQPMNAASGAAMSLAGAEKNGLVKIKVAEDEAEAAAAAKFTGLSKEELLKVAGSPGWVRTRWALLLLFWLGWLGMLAGAVVIIVRAPRCRELPAQKWWHTGALYRIGDLQAFQGHGAGNLAGLKGRLDYLSSLKVKGLVLGPIHKNQKDDVAQTDLLQIDPNFGSKEDFDSLLQSAKKKSIRVILDLTPNYRGENSWFSTQVDTVATKVKDALEFWLQAGVDGFQVRDIENLKDASSFLAEWQNITKGFSEDRLLIAGTNSSDLQQILSLLESNKDLLLTSSYLSDSGSTGEHTKSLVTQYLNATGNRWCSWSLSQARLLTSFLPAQLLRLYQLMLFTLPGTPVFSYGDEIGLDAAALPGQPMEAPVMLWDESSFPDIPGAVSANMTVKGQSEDPGSLLSLFRRLSDQRSKERSLLHGDFHAFSAGPGLFSYIRHWDQNERFLVVLNFGDVGLSAGLQASDLPASASLPAKADLLLSTQPGREEGSPLELERLKLEPHEGLLLRFPYAA
B3: BSG (protein, UniProt P35613 22-385, looked up)
Basigin: AAGFVQAPLSQQRWVGGSVELHCEAVGSPVPEIQWWFEGQGPNDTCSQLWDGARLDRVHIHATYHQHAASTISIDTLVEEDTGTYECRASNDPDRNHLTRAPRVKWVRAQAVVLVLEPGTVFTTVEDLGSKILLTCSLNDSATEVTGHRWLKGGVVLKEDALPGQKTEFKVDSDDQWGEYSCVFLPEPMGTANIQLHGPPRVKAVKSSEHINEGETAMLVCKSESVPPVTDWAWYKITDSEDKALMNGSESRFFVSSSQGRSELHIENLNMEADPGQYRCNGTSSKGSDQAIITLRVRSHLAALWPFLGIVAEVLVLVTIIFIYEKRRKPEDVLDDDDAGSAPLKSSGQHQNDKGKNVRQRNSS

tested on: mSWI/SNF complexes; assay: mSWI/SNF complex purification with HA-tagged baits and mass spectrometry (peptide counts); set-up: species or system human; settings: 293_HA-BRD7: HA-BRD7 bait purification, total peptide count per co-purified protein

Total, 5:
B1, B2, B3

same assay, conditions: 293_HA-BRD7: HA-BRD7 bait purification, unique peptide count per co-purified protein

Unique, 5:
B1, B2, B3
